Among the data in article PMC4882601, “Binding of Human Fibrinogen to MRP Enhances Streptococcus suis Survival in Host Blood in a αXβ2 Integrin-dependent Manner” (Scientific Reports, 2016) are binding values, retold here.

Sequences of proteins named here, by UniProt entry; tags and fusion partners are left off. Residues count along the entry.
UniProt P02675, residues 45-491: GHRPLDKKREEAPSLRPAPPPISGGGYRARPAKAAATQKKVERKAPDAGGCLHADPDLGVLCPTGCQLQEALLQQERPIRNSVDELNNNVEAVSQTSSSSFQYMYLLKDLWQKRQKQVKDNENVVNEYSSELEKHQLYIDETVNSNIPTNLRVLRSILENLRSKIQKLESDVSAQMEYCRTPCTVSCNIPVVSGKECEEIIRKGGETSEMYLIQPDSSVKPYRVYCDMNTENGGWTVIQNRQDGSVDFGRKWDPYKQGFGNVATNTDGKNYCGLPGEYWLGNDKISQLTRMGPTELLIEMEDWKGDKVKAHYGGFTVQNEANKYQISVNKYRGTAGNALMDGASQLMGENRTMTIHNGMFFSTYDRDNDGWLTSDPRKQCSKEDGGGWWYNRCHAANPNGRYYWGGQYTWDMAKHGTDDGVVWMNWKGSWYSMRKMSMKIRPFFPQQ

No constants are given. Whether binding was seen depends on the method and setting. Some binding calls cover weakened binding; strength is not graded here. Sequences can lack the tags named with a protein.

The experiment addresses human fibrinogen Bβ chain (human) (UniProt P02675). Kind of experiment: far-Western, overlay or dot blot; purified hFg separated by reducing SDS-PAGE, transferred to PVDF, probed with biotinylated hisMRP proteins (20 μg/ml), detected with HRP-streptavidin; both purified.

B1: hisMRP-N2 (a.a. 283-721 of muramidase-released protein, mainly consisting of β-sheets) (domain or fragment, UniProt P32653 283-721)
chain: TAVLAELVSRTTGDVLEKYTIEPGESVTFSHPTKVNANNSNITVTYDTSLASANTPGALKFSANDDVYSTIIVPAYQINTTRYVTESGKVLATYGLQTIAGQVVTPSSVRVFTGYDYVATTTKAVQGPYPKGTVYLAGTVQKDTVQYKVIREIVENDQAVLKFYYLDPTYKGEVDWRGTDTTGFIELLTTSPTTYKVGTIYDYNINSKITAPFTIDPTKNVMVFKESEQNEQGSKYRVIAQWSGDETTKGIYGKIYIATQVWTTKLGTNEWGWFDYSDDQAGIKFNNKGFWPAGVQNTLRNATPATAVETTYIYKESSKYGDVIVEYYDTDGKQIVNSVVDTPKSALGTEYNTDVDRRPASLVAADGTVYFYKEVKSDSAKTTGTVVAGTTTVKYVYEKAGSVNVNFVDINGKVIKAPVSDEKDAKPGYNYDTDLDQKL
modifications: biotin (in the far-Western and on the BLI biosensors)
For the molecule B1, the binding entry was “binds”.

B2: hisMRP-N (a.a. 48-721, the N-terminus of muramidase-released protein) (domain or fragment)
chain: DETVASSEPTIASSVAPASTEAVAEEAEKTNAENTSAVATTSTEVEKAKAVLEQVTSESPLLAGLGQKELAKTEDATLAKAIEDAQTKLAAAKAILADSEATVEQVEAQVAAVKVANEALGNELQKYTVDGLLTAALDTVAPDTTASTLKVGDGEGTLLDSTTTATPSMAEPNGAAIAPHTLRTQDGIKATSEPNWYTFESYDLYSYNKNMASSTYKGAEVDAYIRYSLDNDSSTTAVLAELVSRTTGDVLEKYTIEPGESVTFSHPTKVNANNSNITVTYDTSLASANTPGALKFSANDDVYSTIIVPAYQINTTRYVTESGKVLATYGLQTIAGQVVTPSSVRVFTGYDYVATTTKAVQGPYPKGTVYLAGTVQKDTVQYKVIREIVENDQAVLKFYYLDPTYKGEVDWRGTDTTGFIELLTTSPTTYKVGTIYDYNINSKITAPFTIDPTKNVMVFKESEQNEQGSKYRVIAQWSGDETTKGIYGKIYIATQVWTTKLGTNEWGWFDYSDDQAGIKFNNKGFWPAGVQNTLRNATPATAVETTYIYKESSKYGDVIVEYYDTDGKQIVNSVVDTPKSALGTEYNTDVDRRPASLVAADGTVYFYKEVKSDSAKTTGTVVAGTTTVKYVYEKAGSVNVNFVDINGKVIKAPVSDEKDAKPGYNYDTDLDQKL
modifications: biotin (in the far-Western and on the BLI biosensors)
notes: Muramidase-released protein (MRP) of Streptococcus suis serotype 2 strain 05ZYH33, gene SSU05_0753, residues 48-721; also called hisMRP-N_(48-721); source: cloned into pET-28a, expressed, purified by Ni-chelating chromatography
As for B2, the binding result is listed as “binds”.
